From PubChem BioAssay AID504467 (National Center for Advancing Translational Sciences (NCATS), 2011)
The campaign covered roughly 330,000 compounds. About 7,700 (2.3%) were called active. Inconclusive means that the source gave no clear call. Such entries were picked first, then a sample of the others. The call rests on the fitted dose curve; in most records, active means well fitted inhibition curve with a large enough effect; inconclusive means small, poorly fitted or top-dose-only effect, or effect the other way; inactive means flat fitted curve, though single readings scatter. Potencies beside an inconclusive call are fits to weak or partial responses and may not hold up.

assay: qHTS screen for small molecules that inhibit ELG1-dependent DNA repair in human embryonic kidney (HEK293T) cells expressing luciferase-tagged ELG1; conditions: HEK293T ELG1-luciferase reporter, luminescence, 16 h, DNA damage induced by 5-fluorouridine; series mostly up to 46.1 µM; further: nearly all actives have a fitted effect of over 55% in size
In short: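 Overnight (16 hr) co-exposure of 2,000 cells/well to 5-fluorouridine and compound at 37 °C preceded detection. Luciferase was quantified via ONE-Glo luminescence; loss of signal denotes inhibition.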
Potency means the concentration at half of the fitted maximal effect.

| SMILES | Potency |
| --- | --- |
| Cn1c(CN2CCN(c3ccccc3NS(C)(=O)=O)CC2)nc2ccccc21 | inconclusive: 23.1 µM [inhibitor, single point] |
| COc1ccc(-c2ccc(/C=C(\NC(=O)c3ccccc3)C(=O)N3CCOCC3)o2)cc1 | inconclusive: 29.1 µM [inhibitor, single point] |
| O=S(=O)(c1ccccc1)N1CCC(n2nnc3cc(F)ccc32)CC1 | inconclusive: 5.17 µM [inhibitor, partial curve, poor fit] |
| CCOC(=O)c1nn(-c2ccc(F)cc2)c(=O)cc1OCC(=O)Nc1cccc(C)c1 | inconclusive: 13 µM [activator, single point] |
| Cc1ccc(S(=O)(=O)CC(CN2CCOCC2)N2CCOCC2)cc1 (stereo not drawn) | inactive |
| O/N=C1/C2C3C(Br)C4C5CC(C1C53)C24 (stereo not drawn) | inactive |
| COc1ccccc1NC(=O)CCc1c(C)nc2c(-c3ccc(F)cc3)c(C)nn2c1C | inconclusive: 29.1 µM [inhibitor, single point] |
| CC1(C)Cc2c(sc3nnn(Cc4ccc(Cl)cc4)c(=O)c23)CO1 | inconclusive: 29.1 µM [inhibitor, single point] |
| CC1=C(C(=O)OCc2ccc3c(c2)OCO3)C(c2ccc(F)cc2)NC(=O)N1 (stereo not drawn) | active: 1.3 µM |
| CC1C(=O)C(C)C(c2ccc([N+](=O)[O-])cc2)NC1c1ccc([N+](=O)[O-])cc1 (stereo not drawn) | inactive |
| C=C(C)C(=O)Nc1cccc(C2=NOC3(C2)C[C@@H](C(N)=O)N(C(=O)c2ccc(Cl)cc2)C3)c1 (stereo partly drawn) | inconclusive: 2.91 µM [inhibitor, full curve] |
| COCCNc1c(-c2cc3ccc(C)c(C)c3[nH]c2=O)nc2ccccn12 | inconclusive: 2.31 µM [activator, full curve] |
| O=C(Nc1cccn(Cc2ccccc2)c1=O)NC1CCCCC1 | inactive |
| CCC(=O)c1ccc(OCC(O)CN2CCN(c3cccc(C(F)(F)F)c3)CC2)cc1 (stereo not drawn) | inconclusive: 29.1 µM [inhibitor, single point] |
| COc1ccc(Cl)cc1NC(=S)N(Cc1ccc(C(=O)O)cc1)Cc1ccc(OC)c(OC)c1 | inactive |
| CC(=O)Nc1ccc(NC(=S)NC(=O)c2cc3ccccc3o2)cc1 | inconclusive: 16.4 µM [activator, partial curve, poor fit] |
| COc1ccc(N(CC(=O)NCCC2=CCCCC2)S(=O)(=O)c2ccccc2)cc1OC | inconclusive: 25.9 µM [inhibitor, single point] |
| COc1cnc(-c2ccccn2)nc1Oc1cccc(C(F)(F)F)c1 | inactive |
| N#C/C(=C\c1ccc(-c2ccccc2[N+](=O)[O-])o1)C(=O)N1CCOCC1 | inconclusive: 16.4 µM [inhibitor, single point] |
| CCNc1nc(OC)nc(N2CCC(Cc3ccccc3)CC2)n1 | inactive |
| Cc1nc(-c2ccc(NC(=O)c3cccs3)cc2)cs1 | inconclusive: 2.31 µM [activator, partial curve] |
| COc1ccc(C2CC(c3ccc(Cl)cc3)Nc3nc(NC(=O)c4ccco4)nn32)cc1 (stereo not drawn) | inconclusive: 5.17 µM [inhibitor, partial curve] |
| CN(C)c1cccc(C(=O)N2CCCC(CCC(=O)NCc3ccccc3F)C2)c1 (stereo not drawn) | inconclusive: 2.91 µM [inhibitor, partial curve] |
| O=C(O)c1cc(-c2ccc(Cl)c(Cl)c2)n(-c2ccc(F)cc2)n1 | inactive |
| CN(C)c1ccc(Nc2nc(N)c3ccccc3n2)cc1 | inconclusive: 0.73 µM [activator, partial curve, poor fit] |

5 records drawn at random from the list so far:

| SMILES | Potency |
| --- | --- |
| O=C(O)c1cc(-c2ccc(Cl)c(Cl)c2)n(-c2ccc(F)cc2)n1 | inactive |
| CCNc1nc(OC)nc(N2CCC(Cc3ccccc3)CC2)n1 | inactive |
| COCCNc1c(-c2cc3ccc(C)c(C)c3[nH]c2=O)nc2ccccn12 | inconclusive: 2.31 µM [activator, full curve] |
| CCOC(=O)c1nn(-c2ccc(F)cc2)c(=O)cc1OCC(=O)Nc1cccc(C)c1 | inconclusive: 13 µM [activator, single point] |
| Cc1nc(-c2ccc(NC(=O)c3cccs3)cc2)cs1 | inconclusive: 2.31 µM [activator, partial curve] |

Next results follow.

| SMILES | Potency |
| --- | --- |
| CC(C)N1CN=C(Nc2nc3ccccc3o2)NC1 | inconclusive: 29.1 µM [activator, single point] |
| CCOc1ccccc1N1CCN(C(=O)c2cn(CC3CCCCC3)nn2)CC1 | inconclusive: 18.3 µM [activator, partial curve] |
| COc1ccc(C(=O)N2N=C(c3cccc(NS(C)(=O)=O)c3)CC2c2cccs2)cc1 (stereo not drawn) | inconclusive: 29.1 µM [inhibitor, single point] |
| O=S(=O)(NCc1cccnc1)c1ccc2ccccc2c1 | inactive |
| COc1cccc(C(=O)OCC(=O)c2c[nH]c3ccccc23)c1O | inconclusive: 20.6 µM [activator, single point] |
| O=C1NC(c2ccccc2Cl)=N/C1=C/c1ccco1 | inconclusive: 29.1 µM [activator, single point] |
| Cc1ccccc1CN1CCC(n2nccc2NC(=O)CCOc2ccccc2)CC1 | inconclusive: 16.4 µM [inhibitor, single point] |
| Cc1ccc(C(=O)NCC(=O)Nc2ncccc2C)s1 | inactive |
| Cc1ccc(NC(=O)c2cccc(F)c2)cc1S(=O)(=O)N1CCCCCC1 | inconclusive: 18.3 µM [inhibitor, single point] |
| COc1ccc(C(=O)OC2CCN(C)CC2)cc1 | inactive |
| COc1cccc(Cl)c1NC(=O)N1CCN(c2cc(C)nc3ccccc23)CC1 | inactive |
| COc1cc(OC)c(C(=O)OC(C)C(=O)NCc2ccc3c(c2)OCO3)cc1OC (stereo not drawn) | inconclusive: 32.6 µM [inhibitor, single point] |
| CCN(CC(=O)Nc1ccccc1C(F)(F)F)C(=O)c1cc2c(s1)CCCCC2 | inactive |
| CCOC(=O)C1(Cc2cccc(OC)c2)CCN(Cc2cccc(OC)c2OC)CC1 | inactive |
| CCC(C(=O)NCCCc1ccccc1)n1nc(C)c2c(C)n(-c3ccccc3)nc2c1=O (stereo not drawn) | inconclusive: 25.9 µM [inhibitor, single point] |
| CCN1CCOC(CC(=O)Nc2ccc([N+](=O)[O-])cc2)C1=O (stereo not drawn) | inactive |
| COc1ccc(C(CNC(=O)COc2ccc(F)cc2Cl)N2CCCCC2)cc1 (stereo not drawn) | inactive |
| COc1ccc(-c2nc3cc(C)ccn3c2NC2CCCCC2)cc1SC1CCCCC1 | inconclusive: 23.1 µM [inhibitor, single point] |
| FC(F)(F)c1ccc(C2[C@H]3CN(Cc4ccc(-c5ccccc5)cc4)[C@H](c4ccccc4)C34CC2(c2cccnc2)C4)cc1 (stereo partly drawn) | inconclusive: 9.2 µM [inhibitor, partial curve, poor fit] |
| CCN(CC)CCCN1C(=O)C(=O)/C(=C(/O)c2ccc3c(c2)OCCO3)C1c1ccco1 (stereo not drawn) | inconclusive: 18.4 µM [activator, partial curve] |
| N/C(=N\OC(=O)C1CCCCC1)c1ccccn1 | inconclusive: 14.6 µM [activator, partial curve] |
| O=C(CS(=O)c1ccc(F)cc1)Nc1ccccc1Cl (stereo not drawn) | inconclusive: 32.6 µM [activator, partial curve, poor fit] |
| O=C(/C=C/c1ccc([N+](=O)[O-])cc1)NCc1ccco1 | inconclusive: 18.4 µM [activator, single point] |
| CCOC(=O)c1ccc(NC(=O)CCS(=O)(=O)c2cccc3nonc23)cc1 | inactive |
| Cc1ccc(C(OCC(O)CNCc2ccc(F)cc2)c2ccccc2)cc1 (stereo not drawn) | inactive |

| SMILES | Potency |
| --- | --- |
| CCCN1CCc2c(sc(NC(=O)c3ccc(S(=O)(=O)N(C)c4ccccc4)cc3)c2C(N)=O)C1 | inconclusive: 23.1 µM [inhibitor, single point] |
| CC[C@@H]1C=C(C(=O)O)[C@H](c2ccc(Br)cc2)N1S(=O)(=O)c1ccc(C)cc1 | inconclusive: 29.1 µM [inhibitor, single point] |
| CC(O)CNc1nc2c(c(=O)n(C)c(=O)n2C)n1Cc1cccc(C(F)(F)F)c1 (stereo not drawn) | inactive |
| O=C(COC(=O)c1cc(=O)[nH]c2ccccc12)NCc1ccccc1 | inactive |
| COc1nc(C)ccc1-c1noc(-c2cccnc2)n1 | inconclusive: 17.8 µM [activator, partial curve] |
| COc1ccc(C(=O)c2nccc3ccccc23)cc1 | inconclusive: 29.1 µM [activator, single point] |
| CCC(C)C(=O)Nc1nc(C)c(-c2csc(Nc3ccc(Cl)cc3)n2)s1 (stereo not drawn) | active: 8.2 µM |
| C(=N\NC1=NCCN1)/c1ccncc1 | inactive |
| CCn1c(C(O)c2ccccc2)nc2ccccc21 (stereo not drawn) | inactive |
| O=C1CCCN1C(=O)CSc1ncnc2sccc12 | inactive |
| CC(C)Cc1cc(CN2CCCC(CO)(Cc3cccc(Cl)c3)C2)[nH]n1 (stereo not drawn) | inactive |
| CC(=O)N1CCN(c2ccc(NCc3ccc(Br)o3)cc2)CC1 | inactive |
| CCOC(=O)c1cc(C(=O)Nc2ccccc2F)nn1C | inconclusive: 5.8 µM [activator, partial curve] |
| CN(C)S(=O)(=O)Nc1cc(Cl)cc(Cl)c1 | inactive |
| COc1ccccc1N1CCN(C(=O)Nc2cccc(C)c2)CC1 | inactive |
| COc1ccc2cc(C(=O)NCc3ccccc3)c(=O)oc2c1 | inconclusive: 20.6 µM [activator, single point] |
| Cc1cccc(C)c1C(OCCN(C)C)C1CCCCC1 (stereo not drawn) | inactive |
| Cc1ccc(CN2CCc3c(OCc4ccc(F)cc4)cccc3C2=O)cc1 | active: 5.8 µM |
| CCOC(=O)[C@@H]1[C@H]2COc3cc(OC)ccc3[C@@H]2N2C(=O)N(c3ccc(C(F)(F)F)cc3)C(=O)[C@]12C | inactive |
| CCc1ccc(/C=N/NC(=O)c2cc(-c3ccccc3OC)nc3ccccc23)s1 | active: 18.4 µM |
| Cn1ccsc1=NC(=O)c1ccc(S(C)(=O)=O)c([N+](=O)[O-])c1 | inconclusive: 14.6 µM [activator, partial curve] |
| COc1ccc(-c2nc3c(c4nnc(SC(C)C(=O)Nc5ccc(C)cc5)n24)COC(C)(C)C3)cc1 (stereo not drawn) | active: 20.6 µM |
| Cc1ccc2ncc(NC(=O)c3ccc(F)cc3)c(=O)n2c1 | inconclusive: 20.6 µM [activator, partial curve] |
